Record: PubChem BioAssay AID743454 (Peter MacCallum Cancer Centre, 2014)
This is a random part of about 18,000 deposited reagents. Over the whole deposit, 450 (2.5%) got an active call. 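Single biological run; no consistent viability z cut-off exists, so the class columns, not z-scores, define the calls.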 Entries without a mark were called inactive. No sequences are given here.

Assay: 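Knock-downs lowering viability or raising caspase 3/7 activity in vorinostat-treated resistant cells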 (primary screen)
Cells: human HCT116-VR colon cancer cells, selected for vorinostat resistance
Reagents: siRNA pool against human genes, 40 nM siRNA pool
Time to read-out: vorinostat for 24 h, read-out about 72 h after transfection
Challenge: vorinostat at 2.5 µM final
Measured: 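Two measures, CellTiter-Fluor viability and luminescent caspase 3/7 activity, each as fold change against same-plate mock wells, mean of duplicates, then screen-wide robust z-score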
Scale: viability robust z-score: higher = more viable cells than screen typical; caspase robust z-score: higher = more caspase 3/7 activity than screen typical
Rule for the call: 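a knock-down is a hit when classed RV1 or RV2 for lowered viability, or CA1 or CA2 for caspase activation; those lethal without drug were dropped; hits were retested singly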

gene symbol	viability hit class	caspase hit class	viability robust z-score	caspase robust z-score
PXYLP1 (GeneID 92370)	no change	no change	-2.84	1.2
SLC25A42 (GeneID 284439)	no change	no change	0.8	-0.8
TRPC5 (GeneID 7224)	no change	no change	-0.66	3.5
SASS6 (GeneID 163786)	no change	no change	1.64	0.16
STK33 (GeneID 65975)	no change	no change	-0.07	-0.31
TESMIN (GeneID 9633)	no change	no change	0.9	-0.2
GUCY1A1 (GeneID 2982)	no change	no change	0.26	0.22
CHLSN (GeneID 84310)	no change	no change	-0.52	-0.26
PEG3 (GeneID 5178)	no change	no change	0.25	-0.43
ANKRD6 (GeneID 22881)	no change	no change	0.28	-0.46
TRAPPC13 (GeneID 80006)	no change	no change	-0.18	-0.18
GFI1 (GeneID 2672)	no change	no change	-0.6	0.58
RSBN1L (GeneID 222194)	no change	no change	-0.12	-0.76
ZNF468 (GeneID 90333)	no change	no change	1.08	0.34
CLNS1A (GeneID 1207)	no change	no change	-0.07	1.27
VTA1 (GeneID 51534)	no change	no change	-0.16	-0.62
RPS6KA4 (GeneID 8986)	no change	no change	-0.39	2.18
RALA (GeneID 5898)	no change	no change	-0.02	-0.44
NFKB2 (GeneID 4791)	no change	no change	0.73	-0.2
MAP3K15 (GeneID 389840)	no change	no change	0.7	-0.08
TBPL2 (GeneID 387332)	no change	no change	-0.66	-0.66
PASK (GeneID 23178)	no change	no change	-0.36	3.83
FSD1 (GeneID 79187)	no change	no change	0.44	-0.98
HOXB9 (GeneID 3219)	no change	no change	1.12	-0.27
RCOR1 (GeneID 23186)	no change	no change	-0.82	-0.36
ZNF26 (GeneID 7574)	no change	no change	0.23	-0.82
MAML1 (GeneID 9794)	no change	no change	0.75	-0.23
BNIPL (GeneID 149428)	no change	no change	-0.44	-0.16
ACBD3 (GeneID 64746)	no change	no change	-0.22	1.23
GPC4 (GeneID 2239)	no change	no change	-0.8	2.41
MC1R (GeneID 4157)	no change	no change	1.01	-0.42
MRPL38 (GeneID 64978)	no change	no change	-0.1	-1.09
ATAD1 (GeneID 84896)	no change	no change	-0.4	0.17
FANCI (GeneID 55215)	no change	no change	0.24	-0.28
MMP25 (GeneID 64386)	no change	no change	-0.63	0.16
HPRT1 (GeneID 3251)	no change	no change	-3.19	1.59
BCAR1 (GeneID 9564)	no change	no change	-2.23	0.34
LARGE1 (GeneID 9215)	no change	no change	0.44	-0.1
MAD2L1BP (GeneID 9587)	no change	no change	-0.98	4.12
AMPD1 (GeneID 270)	no change	no change	0.54	-0.5
CDC42EP1 (GeneID 11135)	no change	no change	-0.7	3.52
LBH (GeneID 81606)	no change	no change	1.13	-0.4
METTL21A (GeneID 151194)	no change	no change	1.25	-0.24
QPCTL (GeneID 54814)	no change	no change	-1.08	-0.78
NENF (GeneID 29937)	no change	no change	-0.28	0.68
RBBP4 (GeneID 5928)	no change	no change	-0.32	0.51
EME1 (GeneID 146956)	no change	no change	-0.9	3.65
TMPRSS6 (GeneID 164656)	no change	no change	1.6	0.21
MYO5B (GeneID 4645)	no change	no change	0.74	0.35
ACSM1 (GeneID 116285)	no change	no change	-0.48	0.07
MYF6 (GeneID 4618)	no change	no change	-0.52	-0.23
POU4F3 (GeneID 5459)	no change	no change	-0.22	-1.23
FBXL14 (GeneID 144699)	no change	no change	0.46	0.18
CCHCR1 (GeneID 54535)	no change	no change	-0.09	0.57
HSD11B1 (GeneID 3290)	no change	no change	-0.18	-0.94
TMEM37 (GeneID 140738)	no change	no change	-0.12	0.35
IZUMO4 (GeneID 113177)	no change	no change	-1.36	1.42

Sorted by “viability robust z-score” (descending): 9 of the entries above.
gene symbol	viability hit class	caspase hit class	viability robust z-score	caspase robust z-score
SASS6 (GeneID 163786)	no change	no change	1.64	0.16
TESMIN (GeneID 9633)	no change	no change	0.9	-0.2
SLC25A42 (GeneID 284439)	no change	no change	0.8	-0.8
GUCY1A1 (GeneID 2982)	no change	no change	0.26	0.22
PEG3 (GeneID 5178)	no change	no change	0.25	-0.43
STK33 (GeneID 65975)	no change	no change	-0.07	-0.31
CHLSN (GeneID 84310)	no change	no change	-0.52	-0.26
TRPC5 (GeneID 7224)	no change	no change	-0.66	3.5
PXYLP1 (GeneID 92370)	no change	no change	-2.84	1.2
